Laboratory results from PubChem BioAssay AID1688 (National Center for Advancing Translational Sciences (NCATS), 2009).
Screen size: about 220,000 compounds; about 2,400 (1.1%) were called active. This list was built around the results that the source calls inconclusive (neither active nor inactive); the mix of calls is not that of the screen. The call rests on the fitted dose curve; in most records, active means well fitted inhibition curve with a large enough effect; inconclusive means small, poorly fitted or top-dose-only effect, or effect the other way; inactive means no such curve, though single readings can be large or run the other way. Potencies beside an inconclusive call are fits to weak or partial responses and may not hold up.

Test: qHTS Multiplex Assay to Identify Dual Action Probes in a Cell Model of Huntington: Aggregate Formation (GFP); further: nearly all actives have a fitted effect of over 60% in size
Conditions: PC12 HttQ103-GFP aggregates, Acumen cytometry, 40 h; activity change, negative = inhibition: at 46.1 µM (top of the series) unless noted
Outline: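 Huntingtin Q103 exon 1–GFP aggregates in induced PC12 cells (100 nM tebufenozide) were quantified by cytometry from lysates, with compounds dosed in titration.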
On the % scale 0 is the no-effect control and ±100 the full control effect; potency means the concentration at half of the fitted maximal effect.

Compound	Potency	activity change, negative = inhibition
O=S(=O)(Nc1nc2ccccc2nc1Nc1ccc2c(c1)OCCO2)c1cccs1	inconclusive: 10 µM [inhibitor, partial curve, poor fit]	
CCn1c(C(O)c2ccc3c(c2)OCO3)nc2ccccc21 (stereo unspecified)	inconclusive: 35.5 µM [inhibitor, single point]	
CC(=O)NC(C)(C)C1CC=C(C)/C(=N\O)C1 (stereo unspecified)	inconclusive: 5.62 µM [inhibitor, single point]	
Cn1nc(-c2ccc(C(=O)NCCO)cc2)c2ccccc2c1=O		inactive: 2.01% [at 9.22 µM]
Cc1ccc(S(=O)(=O)Nc2ccc(Cl)cc2C(=O)c2ccc(F)cc2)cc1	inconclusive: 35.5 µM [inhibitor, single point]	
CC(CCc1ccccc1)NC(=O)C1CCCN(C(=O)c2cc3sccc3n2C)C1 (stereo unspecified)	inconclusive: 35.5 µM [inhibitor, single point]	
COc1ccc(S(=O)(=O)N2CCC(O)(c3cccnc3)CC2)cc1OC		inactive: 0.179%
Cc1cccc2cc(C#N)c(SCC(=O)N3CC(=O)Nc4ccccc43)nc12	inconclusive: 15.8 µM [activator, single point]	
O=C(C1CCN(S(=O)(=O)c2cccnc2)CC1)N1CCN(c2cccc(Cl)c2)CC1	inconclusive: 11.2 µM [inhibitor, partial curve]	
O=C(CN1C2=NCCCN2c2ccccc21)c1cccc(Br)c1	active: 3.98 µM	
N#CCCN(C(=O)CSc1nc(-c2ccccc2)cn1N)c1ccc(F)cc1	inconclusive: 0.562 µM [inhibitor, full curve, poor fit]	
COc1cc(OC)c(OC)cc1/C=N/NC(=O)C[n+]1ccccc1	inconclusive: 8.91 µM [inhibitor, partial curve]	
CCCCc1nc(N2CCOCC2)c(C#N)c2c1CCCC2	inconclusive: 35.5 µM [inhibitor, single point]	
COc1ccc(CN2C(=O)C(O)(CC(=O)c3ccc4c(c3)OCO4)c3ccccc32)cc1OC (stereo unspecified)		inactive: -8.05% [at 1.84 µM]
C=CCn1c(N2CCN(c3ccc(OC)cc3)CC2)nc2c1c(=O)[nH]c(=O)n2C		inactive: -4.78% [at 9.22 µM]
Cc1cc2nc(-c3ccc4c(c3)CCC4)ccn2n1	inconclusive: 12.6 µM [inhibitor, single point]	
COc1ccc(C(=O)/C=C/c2ccc(OC3CSC3)cc2)cc1OC		inactive: 1.66%
c1ccc2c(c1)OCCOCCOCCOCCOCCOc1ccccc1OCCOCCOCCO2	inconclusive: 15.8 µM [inhibitor, single point]	
CCN1C(=O)C(CC(=O)Nc2ccc(Br)cc2)N(CCCc2ccccc2)C1=S (stereo unspecified)	inconclusive: 25.1 µM [inhibitor, single point]	
CC[n+]1c(/C=C/c2ccc(N(C)C)cc2)ccc2ccccc21	inconclusive: 22.4 µM [inhibitor, single point]	
Cc1ccc(S(=O)(=O)NCc2n[nH]c(=S)n2C)cc1	inconclusive: 1.12 µM [inhibitor, single point]	
C=CCOc1ccc(/C=N/N2C(=O)C(CC(=O)Nc3ccc(F)cc3F)SC2=NC)cc1 (stereo unspecified)		inactive: 21.1%
O=C(NCCc1ccc2c(c1)OCCO2)c1cc2ccccc2o1	inconclusive: 35.5 µM [inhibitor, single point]	
Cn1c(SCC(=O)NCc2cccs2)nnc1-c1ccc(S(=O)(=O)N2CCCC2)cc1	inconclusive: 6.31 µM [activator, partial curve]	

Compound	Potency	activity change, negative = inhibition
CCCCNC(=O)N(c1c(N)n(Cc2ccccc2)c(=O)[nH]c1=O)C1CCCC1		inactive: -11.6%
CCCOc1ccc(OCCSc2ncccn2)cc1		inactive: -0.828%
Cc1nc2sc(C(N)=O)c(N)c2c2c1CCCC2	active: 1.78 µM	
Cc1ncc(CO)c(/C=N/NC(=O)c2ccccc2Br)c1O	inconclusive: 22.4 µM [inhibitor, single point]	
CC(OC(=O)c1snc(C(=O)NC2CCCCC2)c1N)C(=O)NC(C)(C)C (stereo unspecified)	inconclusive: 35.5 µM [inhibitor, single point]	
CCN(CC)S(=O)(=O)c1ccc2nc(CCl)[nH]c2c1		inactive: 2.26%
COc1ccc(NC(=O)Nc2cc(C)ccc2OC)cc1		inactive: -13.7%
CCC(C)(C(=O)NC1CCCCC1)N(C)C(=O)c1ccccn1 (stereo unspecified)		inactive: 16.6%
Cc1ccc2ncnc(Nc3ccc(C)c(C)c3)c2c1	inconclusive: 11.2 µM [inhibitor, partial curve]	
Brc1cccc(Cn2c(-c3cncs3)nc3ccccc32)c1	inconclusive: 35.5 µM [inhibitor, single point]	
CCOC(=O)Cc1nnc2c(Nc3ccc(Cl)cc3)nc3nonc3n12	active: 17.8 µM	
COCC(=O)Nc1cc(Sc2ccccc2)ccc1N=C(NC(=O)OC)NC(=O)OC		inactive: 8.48%
Oc1ccc(CNc2ccccc2F)c2cccnc12	inconclusive: 35.5 µM [inhibitor, single point]	
Cc1ccc2nc(SCc3nc4c(cnn4-c4ccccc4)c(=O)[nH]3)[nH]c2c1	inconclusive: 2.24 µM [inhibitor, full curve, poor fit]	
Cc1ccccc1OCc1nc2ccc(S(=O)(=O)N3CCOCC3)cc2[nH]1		inactive: 16.7% [at 9.22 µM]
CCOC(=O)c1cnc(-n2nc(C)cc2C)nc1NNc1cc(-c2ccccc2)nc(C)n1	inconclusive: 1.26 µM [inhibitor, full curve, poor fit]	
O=C(NC1CCCC1)c1sc(=S)n2c1[nH]c(=O)c1ccccc12	active: 8.91 µM	
CC(=O)C1=C(O)C(=O)N(CCc2c[nH]c3ccccc23)C1c1ccco1 (stereo unspecified)	inconclusive: 5.62 µM [inhibitor, partial curve, poor fit]	
CCOC(=O)N1CCC(NS(=O)(=O)c2ccc3c(c2)CCN3C(C)=O)CC1	inconclusive: 11.2 µM [inhibitor, single point]	
Cn1c(NCc2ccccc2)nc2c1c(=O)n(Cc1ccc(Br)cc1)c(=O)n2C	inconclusive: 14.1 µM [inhibitor, partial curve]	
C(=N\Nc1ccc2ccccc2n1)/c1ccc2c(c1)OCO2	inconclusive: 35.5 µM [inhibitor, single point]	
O=C1CC(Sc2ncccn2)C(=O)N1c1ccccc1 (stereo unspecified)		inactive: 10.5% [at 9.22 µM]
COc1ccc(-c2cc(C(F)(F)F)nc(S(=O)(=O)CCCC(=O)Nc3cccnc3Cl)n2)cc1OC	inconclusive: 35.5 µM [inhibitor, single point]	
CCCn1c(CN2CCN(c3cccc(Cl)c3)CC2)nc2c1c(=O)n(C)c(=O)n2C	active: 5.62 µM	

Entries from the list above that have a furan ring, fused or not:
Compound	Potency	activity change, negative = inhibition
O=C(NCCc1ccc2c(c1)OCCO2)c1cc2ccccc2o1	inconclusive: 35.5 µM [inhibitor, single point]	
CC(=O)C1=C(O)C(=O)N(CCc2c[nH]c3ccccc23)C1c1ccco1 (stereo unspecified)	inconclusive: 5.62 µM [inhibitor, partial curve, poor fit]	

The listing continues.

Compound	Potency	activity change, negative = inhibition
O=C(O)C1CC=CCC1C(=O)N1CCN(c2nc(-c3ccccc3Cl)c3cc(Br)ccc3n2)CC1 (stereo unspecified)		inactive: 2.7%
c1ccc(CNc2nc(-c3cccs3)nc3ccccc23)cc1	inconclusive: 11.2 µM [inhibitor, single point]	
Clc1ccc(Cn2c(/C=C/c3ccco3)nc3ccccc32)cc1	inconclusive: 4.47 µM [activator, full curve, poor fit]	
Cc1nc(-c2cccc(NS(C)(=O)=O)c2)cs1	inconclusive: 12.6 µM [activator, partial curve]	
COc1ccccc1N1CCN(/N=C/c2cc(OC)c(O)c(OC)c2)CC1		inactive: -14%
CC(C)CCOc1ccccc1C(N)=O	inconclusive: 35.5 µM [inhibitor, single point]	
CCn1c(COc2ccc3c(c2)OCO3)nnc1SCC(=O)c1ccccc1	inconclusive: 14.1 µM [activator, single point]	
COc1ccc(OC)c(C2CC(=O)c3c([nH]c(C(=O)OC(C)C)c3C)C2)c1 (stereo unspecified)	inconclusive: 2 µM [inhibitor, partial curve]	
CCOC(=O)c1c(-c2cccs2)csc1NC(=O)CN1CC(C)OC(C)C1 (stereo unspecified)	inconclusive: 35.5 µM [inhibitor, single point]	
FC(F)(F)C1=CC(c2ccc(Cl)cc2)=NCCN1	inconclusive: 3.16 µM [activator, single point]	
Cn1c(=O)oc2cc(S(=O)(=O)Nc3cccc(C(=O)O)c3)ccc21		inactive: 1.23%
C=CCn1c(Oc2cccc(C)c2)nc2c1c(=O)n(C)c(=O)n2C	inconclusive: 3.55 µM [inhibitor, single point]	
CC(OC(=O)c1ccccc1Nc1ccc(SC(F)F)cc1)C(N)=O (stereo unspecified)	inconclusive: 4.47 µM [inhibitor, single point]	
CC(C)(C)OC(=O)N/N=C/c1c[nH]c2ccccc12		inactive: 1.34%
CC(C)Cn1c(/C=N/Nc2nc3ccccc3[nH]2)nc2ccccc21	active: 6.31 µM	
CC(=O)N1CCN(c2ccc(NCc3ccc(C(C)C)cc3)cc2)CC1	inconclusive: 12.6 µM [inhibitor, single point]	
O=C(NCCCN1CCCC1)c1ccc(Cn2c(=S)[nH]c3ccc(Br)cc3c2=O)cc1		inactive: 7.91%
CC(C)(c1ccccc1)c1ccc(OCCn2cnc3ccccc3c2=O)cc1	inconclusive: 35.5 µM [inhibitor, single point]	
CSc1nc2c(cc1C#N)C(=O)CC(C)(C)C2		inactive: 13.9% [at 9.22 µM]
CC(=O)NC(CCS(C)(=O)=O)C(=O)Nc1ccc2c(c1)OCO2 (stereo unspecified)	active: 1.12 µM	
NC(=O)c1ccc(NC(=O)C2CC2)cc1	inconclusive: 5.62 µM [inhibitor, single point]	
N#Cc1cccc(NC(=O)c2ccccc2C(=O)O)c1	inconclusive: 2 µM [activator, partial curve]	
COc1ccc(CN=Cc2c(O)[nH]c3ccccc23)cc1		inactive: 0.724%

Gathered by group: the compounds so far with an aryl methoxy group (10)
Compound	Potency	activity change, negative = inhibition
COc1ccc(S(=O)(=O)N2CCC(O)(c3cccnc3)CC2)cc1OC		inactive: 0.179%
COc1cc(OC)c(OC)cc1/C=N/NC(=O)C[n+]1ccccc1	inconclusive: 8.91 µM [inhibitor, partial curve]	
COc1ccc(CN2C(=O)C(O)(CC(=O)c3ccc4c(c3)OCO4)c3ccccc32)cc1OC (stereo unspecified)		inactive: -8.05% [at 1.84 µM]
C=CCn1c(N2CCN(c3ccc(OC)cc3)CC2)nc2c1c(=O)[nH]c(=O)n2C		inactive: -4.78% [at 9.22 µM]
COc1ccc(C(=O)/C=C/c2ccc(OC3CSC3)cc2)cc1OC		inactive: 1.66%
COc1ccc(NC(=O)Nc2cc(C)ccc2OC)cc1		inactive: -13.7%
COc1ccc(-c2cc(C(F)(F)F)nc(S(=O)(=O)CCCC(=O)Nc3cccnc3Cl)n2)cc1OC	inconclusive: 35.5 µM [inhibitor, single point]	
COc1ccccc1N1CCN(/N=C/c2cc(OC)c(O)c(OC)c2)CC1		inactive: -14%
COc1ccc(OC)c(C2CC(=O)c3c([nH]c(C(=O)OC(C)C)c3C)C2)c1 (stereo unspecified)	inconclusive: 2 µM [inhibitor, partial curve]	
COc1ccc(CN=Cc2c(O)[nH]c3ccccc23)cc1		inactive: 0.724%
